# Results published in the supplement of paper PMC4807443.
# Where a name gives a salt, the structure may show the parent alone. Some of the results follow. The numbers are fractions of the control, whatever unit the source prints. Most entries show no effect beyond the scatter of the controls.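 A lentiviral reporter stably expressed in MIN6 mouse insulinoma beta cells uses Pdx1 and Ins1 promoters to drive separate nucleus-targeted fluorescent proteins; automated imaging with Hoechst nuclear stain counted cells. Possible hits were drugs shifting Ins1 promoter signal more than two median absolute deviations from DMSO controls, with Pdx1 activity roughly normal.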
# System: MIN6
# Assay: % Pdx1+ Ins1+ (double-positive, mature) cells relative to DMSO control (fold of DMSO control); higher = more mature Ins1 promoter-active cells
# Settings: 8.5 µM; 48 h; glucose 5 mM
row,SMILES,% Pdx1+ Ins1+
1,CCN1C(=O)NC(c2ccccc2)C1=O (configuration not stated) [Ethotoin],0.894
2,CN1CCC(=C2c3ccccc3CC(=O)c3sccc32)CC1 [Ketotifen fumarate],1.01
3,COc1ccccc1N1CCN(CC(O)COc2cccc3ccccc23)CC1 (configuration not stated) [Naftopidil dihydrochloride],0.862
4,CN1CCCC(CC2c3ccccc3Sc3ccccc32)C1 (configuration not stated) [Metixene hydrochloride],0.801
5,CC(C)(Sc1cc(C(C)(C)C)c(O)c(C(C)(C)C)c1)Sc1cc(C(C)(C)C)c(O)c(C(C)(C)C)c1 [Probucol],1.03
6,Cn1ccnc1S [Methimazole],0.813
7,Nc1c(Br)cc(Br)cc1CN[C@H]1CC[C@H](O)CC1 [Ambroxol hydrochloride],0.881
8,CC(C)(Oc1ccc(Cl)cc1)C(=O)O [Clofibric acid],0.907
9,CN(C)CC/C=C1\c2ccccc2CSc2ccccc21 [Dosulepin hydrochloride],0.964
10,CO[C@H]1C[C@H](O[C@H]2[C@H](C)[C@@H](O[C@@H]3O[C@H](C)C[C@H](N(C)C)[C@H]3OC(C)=O)[C@@H](C)C[C@@]3(CO3)C(=O)[C@H](C)[C@@H](OC(C)=O)[C@@H](C)[C@@H](C)OC(=O)[C@@H]2C)O[C@@H](C)[C@@H]1OC(C)=O [Troleandomycin],0.867
11,COc1ccc(-c2ccc(=N)n(CCCC(=O)O)n2)cc1 [Gabazine],1.02
12,Cc1cc(C(=O)NNCc2ccccc2)no1 [Isocarboxazid],0.804
13,CN1C(C(=O)Nc2ccccn2)=C(O)c2sccc2S1(=O)=O [Tenoxicam],0.957
14,Cc1ncc([N+](=O)[O-])n1CC(O)CCl (configuration not stated) [Ornidazole],1.06
15,COc1cc(/C=C/C(=O)N2CCC=CC2=O)cc(OC)c1OC [Piperlongumine],0.853
16,C=C[C@H]1CN2CC[C@H]1C[C@@H]2[C@@H](O)c1ccnc2ccc(OC)cc12 [Quinidine hydrochloride monohydrate],1.03
17,C[C@]12CC[C@H]3C(=CCc4cc(O)ccc43)[C@@H]1CCC2=O [Equilin],0.899
18,CN(C)CCC=C1c2ccccc2CCc2ccccc21 [Amitryptiline hydrochloride],1.17
19,Cc1[nH]c(=O)c(C#N)cc1-c1ccncc1 [Milrinone],1.07
20,Cn1c(=O)c2[nH]cnc2n(C)c1=O [Aminophylline],0.992
21,CCN(CC)CCOC(=O)C(c1ccccc1)C1CCCCC1 (configuration not stated) [Drofenine hydrochloride],0.844
22,COc1cc(Cc2cnc(N)nc2N)cc(OC)c1OC [Trimethoprim],1.1
23,CO[C@@]1(NC(=O)Cc2cccs2)C(=O)N2C(C(=O)O)=C(COC(N)=O)CS[C@@H]21 [Cefoxitin sodium salt],1.01
24,CC(=O)c1ccc2c(c1)N(CCCN1CCC(CCO)CC1)c1ccccc1S2 [Piperacetazine],0.928

# Three entries already listed, sorted by length of the SMILES, falling:
row,SMILES,% Pdx1+ Ins1+
13,CN1C(C(=O)Nc2ccccn2)=C(O)c2sccc2S1(=O)=O [Tenoxicam],0.957
7,Nc1c(Br)cc(Br)cc1CN[C@H]1CC[C@H](O)CC1 [Ambroxol hydrochloride],0.881
18,CN(C)CCC=C1c2ccccc2CCc2ccccc21 [Amitryptiline hydrochloride],1.17

# Remaining list, next part.

row,SMILES,% Pdx1+ Ins1+
1,O=C(CCCN1CCC(O)(c2ccc(Br)cc2)CC1)c1ccc(F)cc1 [Bromperidol],0.919
2,CCCCC(CC)CN1CN(CC(CC)CCCC)CC(C)(N)C1 (configuration not stated) [Hexetidine],0.84
3,CC(C)(C)C(=O)OCOC(=O)[C@@H]1N2C(=O)[C@@H](NC(=O)[C@H](N)c3ccccc3)[C@H]2SC1(C)C [Pivampicillin],1
4,O=C1NCN(c2ccccc2)C12CCN(CCCC(c1ccc(F)cc1)c1ccc(F)cc1)CC2 [Fluspirilen],0.763
5,N=C(N)NC(=O)c1nc(Cl)c(N)nc1N [Amiloride hydrochloride dihydrate],1.07
6,CCCCOC(=O)c1ccc(N)cc1 [Butamben],0.876
7,NS(=O)(=O)c1cc2c(cc1Cl)N=CNS2(=O)=O [Chlorothiazide],1.03
8,CN[C@H](CC(C)C)C(=O)N[C@H]1C(=O)N[C@@H](CC(N)=O)C(=O)N[C@H]2C(=O)N[C@H]3C(=O)N[C@H](C(=O)N[C@H](C(=O)O)c4cc(O)cc(O)c4-c4cc3ccc4O)[C@H](O)c3ccc(c(Cl)c3)Oc3cc2cc(c3O[C@@H]2O[C@H](CO)[C@@H](O)[C@H](O)[C@H]2O[C@H]2C[C@](C)(N)[C@H](O)[C@H](C)O2)Oc2ccc(cc2Cl)[C@H]1O [Vancomycin hydrochloride],1.03
9,CC(C)COCC(CN(Cc1ccccc1)c1ccccc1)N1CCCC1 (configuration not stated) [Bepridil hydrochloride],1
10,NC(=O)c1ncn([C@@H]2O[C@H](CO)[C@@H](O)[C@H]2O)n1 [Ribavirin],0.885
11,CCOC(=O)[C@H](CCc1ccccc1)N[C@@H](C)C(=O)N1[C@H](C(=O)O)C[C@@H]2CCC[C@@H]21 [Ramipril],0.896
12,CCOc1ccc2c(c1)C(C)=CC(C)(C)N2 [Ethoxyquin],0.777
13,NS(=O)(=O)c1cc(C(=O)O)c(NCc2ccco2)cc1Cl [Furosemide],0.847
14,Cc1cc(C2CCCCC2)n(O)c(=O)c1 [Ciclopirox ethanolamine],0.712
15,O=C(c1ccccc1)c1ccc2n1CCC2C(=O)O (configuration not stated) [Ketorolac tromethamine],0.823
16,CCOC(=O)[C@@](C)(N)Cc1ccc(O)c(O)c1 [Methyldopate hydrochloride],0.755
17,CCN[C@@H]1C[C@H](N)[C@@H](O[C@H]2OC(CN)=CC[C@H]2N)[C@H](O)[C@H]1O[C@H]1OC[C@](C)(O)[C@H](NC)[C@H]1O [Netilmicin sulfate],1.01
18,CN1Cc2c(N)cccc2C(c2ccccc2)C1 (configuration not stated) [Nomifensine maleate],1.08
19,"c1ccc(CNc2ncnc3nc[nH]c23)cc1 [Aminopurine, 6-benzyl]",1.02
20,COc1ccccc1OCC(O)COC(N)=O (configuration not stated) [Methocarbamol],1.15
21,Cc1cc(N)c2ccccc2[n+]1CCCCCCCCCC[n+]1c(C)cc(N)c2ccccc21 [Dequalinium dichloride],0.0402
22,N=C(N)NCCN1CCCCCCC1 [Guanethidine sulfate],1.09
23,C#C[C@]1(O)CC[C@H]2[C@@H]3CCC4=CC(=O)CC[C@@H]4[C@H]3CC[C@@]21CC [Norgestrel-(-)-D],0.945
